Values of other authors as cited in patent US20040142970A1 (priority 2002, published 2004).

Question: With COc1cc2c(cc1OC)C(=O)C(CC1CCN(Cc3ccccc3)CC1)C2.Cl (racemic) [donepezil, (±)-2,3-dihydro-5,6-dimethoxy-2-[[1-(phenylmethyl)-4-piperidinyl]methyl]-1H-inden-1-one hydrochloride] as the compound, how does the plasma half life read?
Answer: 70 h
